{"source": "paper PMC8384837", "note": "The list shows a part of the results. At the low end of the ranking the order means little.", "data": [{"target": "T1, PUM1 PUF domain R1-QFR R2-VFQ R7-NPG S863Q + R864F + Q867R + N899V + Y900F + S1079N + N1080P + E1083G (UniProt Q14671)", "T1 sequence": "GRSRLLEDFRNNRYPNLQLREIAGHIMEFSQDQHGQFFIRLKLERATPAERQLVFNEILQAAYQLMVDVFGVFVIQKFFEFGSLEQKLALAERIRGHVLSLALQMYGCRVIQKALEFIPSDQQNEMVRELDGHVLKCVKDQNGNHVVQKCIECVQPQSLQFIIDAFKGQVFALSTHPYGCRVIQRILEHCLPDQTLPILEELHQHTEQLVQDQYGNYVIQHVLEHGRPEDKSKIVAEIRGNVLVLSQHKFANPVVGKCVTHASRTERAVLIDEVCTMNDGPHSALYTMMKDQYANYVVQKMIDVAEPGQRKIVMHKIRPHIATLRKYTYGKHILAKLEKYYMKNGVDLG", "conditions": "yeast three-hybrid, YBZ-1, SC-Leu-His + 0.5 mM 3-AT, 4 days", "values": [{"sequence": "GGCUAGAACUAGUGGAUCCCCCGGCGCCCGGCGGCUCGAGCCCGGGUAAGUUGGAGAAGUCUGCAUGCCGCCGGGCGCCAUGCCUGCAGGUCGACUCUAGAAAACAUG", "binding signal (log2 enrichment (interaction score))": -5.45}, {"sequence": "GGCUAGAACUAGUGGAUCCCCCGGCGCCCGGCGGCUCGAGCCCGGGUAAGUUUAUGUAGUCUGCAUGCCGCCGGGCGCCAUGCCUGCAGGUCGACUCUAGAAAACAUG", "binding signal (log2 enrichment (interaction score))": -5.83}, {"sequence": "GGCUAGAACUAGUGGAUCCCCCGGCGCCCGGCGGCUCGAGCCCGGGUAAGCCGAUAUCGUCUGCAUGCCGCCGGGCGCCAUGCCUGCAGGUCGACUCUAGAAAACAUG", "binding signal (log2 enrichment (interaction score))": -5.5}, {"sequence": "GGCUAGAACUAGUGGAUCCCCCGGCGCCCGGCGGCUCGAGCCCGGGUAAGGUGAAACUGUCUGCAUGCCGCCGGGCGCCAUGCCUGCAGGUCGACUCUAGAAAACAUG", "binding signal (log2 enrichment (interaction score))": "< -6.21"}, {"sequence": "GGCUAGAACUAGUGGAUCCCCCGGCGCCCGGCGGCUCGAGCCCGGGUAAGUUUAAAUUGUCUGCAUGCCGCCGGGCGCCAUGCCUGCAGGUCGACUCUAGAAAACAUG", "binding signal (log2 enrichment (interaction score))": -5.81}, {"sequence": "GGCUAGAACUAGUGGAUCCCCCGGCGCCCGGCGGCUCGAGCCCGGGUAAGCUGAAAUUGUCUGCAUGCCGCCGGGCGCCAUGCCUGCAGGUCGACUCUAGAAAACAUG", "binding signal (log2 enrichment (interaction score))": "< -5.76"}, {"sequence": "GGCUAGAACUAGUGGAUCCCCCGGCGCCCGGCGGCUCGAGCCCGGGUAAGUGGAACACGUCUGCAUGCCGCCGGGCGCCAUGCCUGCAGGUCGACUCUAGAAAACAUG", "binding signal (log2 enrichment (interaction score))": -5.81}, {"sequence": "GGCUAGAACUAGUGGAUCCCCCGGCGCCCGGCGGCUCGAGCCCGGGUAAGUAUAAACCGUCUGCAUGCCGCCGGGCGCCAUGCCUGCAGGUCGACUCUAGAAAACAUG", "binding signal (log2 enrichment (interaction score))": -6.37}, {"sequence": "GGCUAGAACUAGUGGAUCCCCCGGCGCCCGGCGGCUCGAGCCCGGGUAAGGGUAAGUGGUCUGCAUGCCGCCGGGCGCCAUGCCUGCAGGUCGACUCUAGAAAACAUG", "binding signal (log2 enrichment (interaction score))": -5.94}, {"sequence": "GGCUAGAACUAGUGGAUCCCCCGGCGCCCGGCGGCUCGAGCCCGGGUAAGUGUUAAGAGUCUGCAUGCCGCCGGGCGCCAUGCCUGCAGGUCGACUCUAGAAAACAUG", "binding signal (log2 enrichment (interaction score))": -5.88}, {"sequence": "GGCUAGAACUAGUGGAUCCCCCGGCGCCCGGCGGCUCGAGCCCGGGUAAGUUGUCACAGUCUGCAUGCCGCCGGGCGCCAUGCCUGCAGGUCGACUCUAGAAAACAUG", "binding signal (log2 enrichment (interaction score))": -6.04}, {"sequence": "GGCUAGAACUAGUGGAUCCCCCGGCGCCCGGCGGCUCGAGCCCGGGUAAGUUAGAAUAGUCUGCAUGCCGCCGGGCGCCAUGCCUGCAGGUCGACUCUAGAAAACAUG", "binding signal (log2 enrichment (interaction score))": "< -5.02"}, {"sequence": "GGCUAGAACUAGUGGAUCCCCCGGCGCCCGGCGGCUCGAGCCCGGGUAAGUUGACGGAGUCUGCAUGCCGCCGGGCGCCAUGCCUGCAGGUCGACUCUAGAAAACAUG", "binding signal (log2 enrichment (interaction score))": -2.96}, {"sequence": "GGCUAGAACUAGUGGAUCCCCCGGCGCCCGGCGGCUCGAGCCCGGGUAAGUUGGAAAAGUCUGCAUGCCGCCGGGCGCCAUGCCUGCAGGUCGACUCUAGAAAACAUG", "binding signal (log2 enrichment (interaction score))": "< -5.89"}, {"sequence": "GGCUAGAACUAGUGGAUCCCCCGGCGCCCGGCGGCUCGAGCCCGGGUAAGUCUACGCCGUCUGCAUGCCGCCGGGCGCCAUGCCUGCAGGUCGACUCUAGAAAACAUG", "binding signal (log2 enrichment (interaction score))": "< -5.7"}, {"sequence": "GGCUAGAACUAGUGGAUCCCCCGGCGCCCGGCGGCUCGAGCCCGGGUAAGUUGAGAUGGUCUGCAUGCCGCCGGGCGCCAUGCCUGCAGGUCGACUCUAGAAAACAUG", "binding signal (log2 enrichment (interaction score))": "< -6.3"}, {"sequence": "GGCUAGAACUAGUGGAUCCCCCGGCGCCCGGCGGCUCGAGCCCGGGUAAGUUUAAAGCGUCUGCAUGCCGCCGGGCGCCAUGCCUGCAGGUCGACUCUAGAAAACAUG", "binding signal (log2 enrichment (interaction score))": -3.15}, {"sequence": "GGCUAGAACUAGUGGAUCCCCCGGCGCCCGGCGGCUCGAGCCCGGGUAAGAUGAAAAAGUCUGCAUGCCGCCGGGCGCCAUGCCUGCAGGUCGACUCUAGAAAACAUG", "binding signal (log2 enrichment (interaction score))": -5.56}, {"sequence": "GGCUAGAACUAGUGGAUCCCCCGGCGCCCGGCGGCUCGAGCCCGGGUAAGUCGACAUAGUCUGCAUGCCGCCGGGCGCCAUGCCUGCAGGUCGACUCUAGAAAACAUG", "binding signal (log2 enrichment (interaction score))": -5.62}, {"sequence": "GGCUAGAACUAGUGGAUCCCCCGGCGCCCGGCGGCUCGAGCCCGGGUAAGCUGGAAUAGUCUGCAUGCCGCCGGGCGCCAUGCCUGCAGGUCGACUCUAGAAAACAUG", "binding signal (log2 enrichment (interaction score))": -6.18}, {"sequence": "GGCUAGAACUAGUGGAUCCCCCGGCGCCCGGCGGCUCGAGCCCGGGUAAGAAUAAGGAGUCUGCAUGCCGCCGGGCGCCAUGCCUGCAGGUCGACUCUAGAAAACAUG", "binding signal (log2 enrichment (interaction score))": -5.26}, {"sequence": "GGCUAGAACUAGUGGAUCCCCCGGCGCCCGGCGGCUCGAGCCCGGGUAAGGUUAAAUAGUCUGCAUGCCGCCGGGCGCCAUGCCUGCAGGUCGACUCUAGAAAACAUG", "binding signal (log2 enrichment (interaction score))": -6.83}, {"sequence": "GGCUAGAACUAGUGGAUCCCCCGGCGCCCGGCGGCUCGAGCCCGGGUAAGUACAGAUAGUCUGCAUGCCGCCGGGCGCCAUGCCUGCAGGUCGACUCUAGAAAACAUG", "binding signal (log2 enrichment (interaction score))": -4.61}, {"sequence": "GGCUAGAACUAGUGGAUCCCCCGGCGCCCGGCGGCUCGAGCCCGGGUAAGUUGCAAACGUCUGCAUGCCGCCGGGCGCCAUGCCUGCAGGUCGACUCUAGAAAACAUG", "binding signal (log2 enrichment (interaction score))": -5.93}, {"sequence": "GGCUAGAACUAGUGGAUCCCCCGGCGCCCGGCGGCUCGAGCCCGGGUAAGCGGAAGUAGUCUGCAUGCCGCCGGGCGCCAUGCCUGCAGGUCGACUCUAGAAAACAUG", "binding signal (log2 enrichment (interaction score))": -5.61}, {"sequence": "GGCUAGAACUAGUGGAUCCCCCGGCGCCCGGCGGCUCGAGCCCGGGUAAGUAGCCCCCGUCUGCAUGCCGCCGGGCGCCAUGCCUGCAGGUCGACUCUAGAAAACAUG", "binding signal (log2 enrichment (interaction score))": "< -6.13"}, {"sequence": "GGCUAGAACUAGUGGAUCCCCCGGCGCCCGGCGGCUCGAGCCCGGGUAAGUUGACAUCGUCUGCAUGCCGCCGGGCGCCAUGCCUGCAGGUCGACUCUAGAAAACAUG", "binding signal (log2 enrichment (interaction score))": -4.91}, {"sequence": "GGCUAGAACUAGUGGAUCCCCCGGCGCCCGGCGGCUCGAGCCCGGGUAAGUUGAGAAAGUCUGCAUGCCGCCGGGCGCCAUGCCUGCAGGUCGACUCUAGAAAACAUG", "binding signal (log2 enrichment (interaction score))": -5.59}, {"sequence": "GGCUAGAACUAGUGGAUCCCCCGGCGCCCGGCGGCUCGAGCCCGGGUAAGAAGACAACGUCUGCAUGCCGCCGGGCGCCAUGCCUGCAGGUCGACUCUAGAAAACAUG", "binding signal (log2 enrichment (interaction score))": "< -6.09"}, {"sequence": "GGCUAGAACUAGUGGAUCCCCCGGCGCCCGGCGGCUCGAGCCCGGGUAAGUUUCAAUGGUCUGCAUGCCGCCGGGCGCCAUGCCUGCAGGUCGACUCUAGAAAACAUG", "binding signal (log2 enrichment (interaction score))": "< -5.85"}, {"sequence": "GGCUAGAACUAGUGGAUCCCCCGGCGCCCGGCGGCUCGAGCCCGGGUAAGUUGUAAAAGUCUGCAUGCCGCCGGGCGCCAUGCCUGCAGGUCGACUCUAGAAAACAUG", "binding signal (log2 enrichment (interaction score))": -4.78}]}]}
